{"sequences": {"note": "By UniProt entry, the sequences of proteins in these tests, tags left out. Where a name states a change or a piece, a line headed by the entry shows the natural chain unless it says otherwise.", "UniProt Q8NG27": "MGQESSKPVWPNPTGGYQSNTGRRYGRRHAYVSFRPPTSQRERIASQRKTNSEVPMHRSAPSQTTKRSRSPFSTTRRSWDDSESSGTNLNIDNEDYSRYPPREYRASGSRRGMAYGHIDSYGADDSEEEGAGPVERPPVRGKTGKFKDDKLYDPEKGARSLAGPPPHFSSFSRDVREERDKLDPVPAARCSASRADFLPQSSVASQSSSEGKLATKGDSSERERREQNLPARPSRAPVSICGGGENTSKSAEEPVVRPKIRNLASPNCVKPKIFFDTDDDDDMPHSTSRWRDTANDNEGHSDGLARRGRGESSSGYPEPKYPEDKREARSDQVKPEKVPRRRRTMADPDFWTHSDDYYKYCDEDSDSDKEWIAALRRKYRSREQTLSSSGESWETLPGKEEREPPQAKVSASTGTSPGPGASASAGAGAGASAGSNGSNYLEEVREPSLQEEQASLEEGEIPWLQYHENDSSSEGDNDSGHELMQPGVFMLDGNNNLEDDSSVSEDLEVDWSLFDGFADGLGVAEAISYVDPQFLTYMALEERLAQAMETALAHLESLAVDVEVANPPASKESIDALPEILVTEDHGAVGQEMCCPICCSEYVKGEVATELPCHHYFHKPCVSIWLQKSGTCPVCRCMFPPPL"}, "source": "paper PMC6206484", "key": {"[1]": {"biological_target": "T1, endogenous NSE4 (human (endogenous in 293T)) (UniProt Q9NXX6)", "T1 sequence": "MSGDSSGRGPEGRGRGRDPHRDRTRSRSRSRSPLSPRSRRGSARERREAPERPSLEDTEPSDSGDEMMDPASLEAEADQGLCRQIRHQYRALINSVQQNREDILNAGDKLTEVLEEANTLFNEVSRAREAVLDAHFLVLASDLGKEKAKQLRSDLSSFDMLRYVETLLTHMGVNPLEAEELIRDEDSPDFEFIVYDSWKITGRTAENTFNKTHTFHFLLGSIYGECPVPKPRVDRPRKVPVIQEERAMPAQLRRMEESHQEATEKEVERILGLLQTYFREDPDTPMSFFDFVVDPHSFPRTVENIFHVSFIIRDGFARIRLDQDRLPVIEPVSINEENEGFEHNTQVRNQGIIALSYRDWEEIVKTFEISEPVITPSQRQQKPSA", "assay": "co-IP; endogenous proteins; 293T cells lysed in RIPA lysis buffer; immunoprecipitated with anti-PJA1 antibody, anti-NSE4 antibody or rabbit IgG; blots for PJA1, NSE4, GAPDH"}, "[2]": {"biological_target": "T2, HA-NSE4 (from pCAGGS-HA-NSE4) (human) (UniProt Q9NXX6)", "T2 sequence": "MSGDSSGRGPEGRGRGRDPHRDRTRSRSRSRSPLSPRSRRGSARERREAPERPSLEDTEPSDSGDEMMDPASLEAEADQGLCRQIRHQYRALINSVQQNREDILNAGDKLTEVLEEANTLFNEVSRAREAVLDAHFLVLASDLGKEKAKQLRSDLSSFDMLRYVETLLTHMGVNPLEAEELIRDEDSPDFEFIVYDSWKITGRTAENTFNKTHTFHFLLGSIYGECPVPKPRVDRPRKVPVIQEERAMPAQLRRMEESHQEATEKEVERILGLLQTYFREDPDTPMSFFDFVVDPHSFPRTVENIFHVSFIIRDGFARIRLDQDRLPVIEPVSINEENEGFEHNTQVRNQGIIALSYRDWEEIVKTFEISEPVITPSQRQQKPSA", "assay": "co-IP; competitive co-IP: 293T cells cotransfected with pCAGGS-HA-NSE4 and pFlag-SMC5, pFlag-NSE1 or pFlag-NSE3, with or without tag-free pcDNA3.1-PJA1ΔR (0.5 μg) or pcDNA3.1-PJA1BΔR (0, 0.5, 1.5 μg); RIPA lysis buffer; blots with anti-HA or anti-Flag"}, "GST-NSE3 (human)": {"biological_target": "T3, GST-NSE3 (human) (UniProt Q96MG7)", "T3 sequence": "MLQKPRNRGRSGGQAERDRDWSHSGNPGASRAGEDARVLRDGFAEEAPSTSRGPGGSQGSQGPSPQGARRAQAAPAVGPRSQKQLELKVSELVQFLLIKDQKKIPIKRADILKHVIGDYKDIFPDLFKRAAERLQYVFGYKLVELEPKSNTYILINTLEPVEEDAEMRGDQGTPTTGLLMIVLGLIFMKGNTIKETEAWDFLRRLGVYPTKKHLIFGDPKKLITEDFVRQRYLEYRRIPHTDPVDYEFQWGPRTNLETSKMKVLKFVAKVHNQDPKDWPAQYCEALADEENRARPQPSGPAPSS", "assay": "pull-down; GST fusions immobilised on glutathione-Sepharose beads, incubated with MBP-PJA1BΔR lysates at 4°C for 1 h, washed 5 times with cold PBS; blots with anti-PJA1 or anti-GST; only the target purified"}, "GST-NSE4 (human)": {"biological_target": "T4, GST-NSE4 (human) (UniProt Q9NXX6)", "T4 sequence": "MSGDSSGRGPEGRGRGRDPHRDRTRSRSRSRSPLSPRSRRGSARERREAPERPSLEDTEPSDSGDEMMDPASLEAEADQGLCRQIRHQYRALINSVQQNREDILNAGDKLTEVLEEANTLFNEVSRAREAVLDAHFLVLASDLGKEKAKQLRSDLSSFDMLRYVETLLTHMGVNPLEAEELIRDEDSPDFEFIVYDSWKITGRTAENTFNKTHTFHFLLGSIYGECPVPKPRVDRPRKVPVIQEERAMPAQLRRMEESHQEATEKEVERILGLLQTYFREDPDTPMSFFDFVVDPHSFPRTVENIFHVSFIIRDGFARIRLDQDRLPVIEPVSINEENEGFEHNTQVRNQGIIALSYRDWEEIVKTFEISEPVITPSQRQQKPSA", "assay": "pull-down; GST fusions immobilised on glutathione-Sepharose beads, incubated with MBP-PJA1BΔR lysates at 4°C for 1 h, washed 5 times with cold PBS; blots with anti-PJA1 or anti-GST; only the target purified"}, "Flag-NSE1 (human)": {"biological_target": "T5, Flag-NSE1 (human) (UniProt Q8WV22)", "T5 sequence": "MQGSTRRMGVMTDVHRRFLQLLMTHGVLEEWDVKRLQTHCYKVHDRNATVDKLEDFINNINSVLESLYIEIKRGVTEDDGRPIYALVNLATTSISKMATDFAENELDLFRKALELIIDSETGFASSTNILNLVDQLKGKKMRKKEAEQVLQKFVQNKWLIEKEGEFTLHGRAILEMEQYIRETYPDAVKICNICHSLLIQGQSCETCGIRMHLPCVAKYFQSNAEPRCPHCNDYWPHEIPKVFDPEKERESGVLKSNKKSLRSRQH", "assay": "co-IP; 293T cells cotransfected with pCAGGS-HA-PJA1ΔR and pFlag constructs; RIPA lysis buffer; protein G-agarose, overnight at 4°C; washes with 150 mM NaCl wash buffer; blots with anti-HA or anti-Flag"}, "Flag-NSE3 (human)": {"biological_target": "T6, Flag-NSE3 (human) (UniProt Q96MG7)", "T6 sequence": "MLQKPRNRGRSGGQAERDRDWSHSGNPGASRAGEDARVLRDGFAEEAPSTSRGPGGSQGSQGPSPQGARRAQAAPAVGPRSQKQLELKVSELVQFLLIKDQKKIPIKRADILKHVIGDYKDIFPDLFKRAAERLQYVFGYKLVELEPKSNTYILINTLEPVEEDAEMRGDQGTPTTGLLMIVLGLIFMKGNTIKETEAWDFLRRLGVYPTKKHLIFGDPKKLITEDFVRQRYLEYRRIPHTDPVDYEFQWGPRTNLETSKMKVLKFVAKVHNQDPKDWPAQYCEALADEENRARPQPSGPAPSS", "assay": "co-IP; 293T cells cotransfected with pCAGGS-HA-PJA1ΔR and pFlag constructs; RIPA lysis buffer; protein G-agarose, overnight at 4°C; washes with 150 mM NaCl wash buffer; blots with anti-HA or anti-Flag"}, "Flag-NSE4 (human)": {"biological_target": "T7, Flag-NSE4 (human) (UniProt Q9NXX6)", "T7 sequence": "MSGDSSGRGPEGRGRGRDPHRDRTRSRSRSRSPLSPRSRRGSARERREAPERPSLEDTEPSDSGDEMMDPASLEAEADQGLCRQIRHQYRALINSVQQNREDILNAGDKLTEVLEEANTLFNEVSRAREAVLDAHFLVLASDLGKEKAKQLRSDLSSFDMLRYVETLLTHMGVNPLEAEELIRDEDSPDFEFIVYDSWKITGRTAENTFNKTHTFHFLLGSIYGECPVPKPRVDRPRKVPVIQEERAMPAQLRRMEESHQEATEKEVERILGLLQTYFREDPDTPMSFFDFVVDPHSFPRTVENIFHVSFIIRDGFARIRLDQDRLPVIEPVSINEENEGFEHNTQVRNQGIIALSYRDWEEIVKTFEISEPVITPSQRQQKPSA", "assay": "co-IP; 293T cells cotransfected with pCAGGS-HA-PJA1ΔR and pFlag constructs; RIPA lysis buffer; protein G-agarose, overnight at 4°C; washes with 150 mM NaCl wash buffer; blots with anti-HA or anti-Flag"}, "Flag-SMC6 (human)": {"biological_target": "T8, Flag-SMC6 (human) (UniProt Q96SB8)", "T8 sequence": "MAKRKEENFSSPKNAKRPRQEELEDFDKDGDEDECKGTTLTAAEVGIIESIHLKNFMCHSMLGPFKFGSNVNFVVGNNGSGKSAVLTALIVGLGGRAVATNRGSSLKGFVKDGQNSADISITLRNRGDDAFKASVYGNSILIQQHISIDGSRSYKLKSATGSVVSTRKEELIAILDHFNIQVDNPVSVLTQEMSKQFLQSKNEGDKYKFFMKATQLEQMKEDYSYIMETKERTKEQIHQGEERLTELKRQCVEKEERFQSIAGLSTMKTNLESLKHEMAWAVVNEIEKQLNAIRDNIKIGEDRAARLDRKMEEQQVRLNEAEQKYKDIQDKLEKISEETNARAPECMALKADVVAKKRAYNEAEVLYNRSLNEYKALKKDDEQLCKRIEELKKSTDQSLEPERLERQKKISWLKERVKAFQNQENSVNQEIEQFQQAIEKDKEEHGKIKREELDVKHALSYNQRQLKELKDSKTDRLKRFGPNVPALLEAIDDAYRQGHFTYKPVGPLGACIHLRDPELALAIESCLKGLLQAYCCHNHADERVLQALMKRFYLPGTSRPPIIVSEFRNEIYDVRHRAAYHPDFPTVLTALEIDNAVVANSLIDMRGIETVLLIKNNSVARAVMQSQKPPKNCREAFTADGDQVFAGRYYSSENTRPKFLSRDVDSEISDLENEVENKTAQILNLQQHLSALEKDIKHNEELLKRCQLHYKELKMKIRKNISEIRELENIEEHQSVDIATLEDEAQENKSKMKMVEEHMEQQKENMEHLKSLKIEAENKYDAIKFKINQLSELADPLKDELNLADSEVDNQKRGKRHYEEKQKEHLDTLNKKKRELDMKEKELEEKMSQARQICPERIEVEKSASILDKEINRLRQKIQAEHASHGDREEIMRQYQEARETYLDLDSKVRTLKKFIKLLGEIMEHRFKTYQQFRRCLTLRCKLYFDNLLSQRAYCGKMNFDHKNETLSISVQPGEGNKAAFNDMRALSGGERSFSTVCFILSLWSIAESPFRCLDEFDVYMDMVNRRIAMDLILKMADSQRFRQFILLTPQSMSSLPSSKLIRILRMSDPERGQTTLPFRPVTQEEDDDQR", "assay": "co-IP; 293T cells cotransfected with pCAGGS-HA-PJA1ΔR and pFlag constructs; RIPA lysis buffer; protein G-agarose, overnight at 4°C; washes with 150 mM NaCl wash buffer; blots with anti-HA or anti-Flag"}, "[3]": {"biological_target": "endogenous PJA1 (human (endogenous in 293T)) (UniProt Q8NG27)", "assay": "co-IP; endogenous proteins; 293T cells lysed in RIPA lysis buffer; immunoprecipitated with anti-PJA1 antibody, anti-NSE4 antibody or rabbit IgG; blots for PJA1, NSE4, GAPDH"}}, "note": "No constants are given. Whether binding was seen depends on the method and setting. Binding seen in cells or lysates may run through a third protein. For some of these results: Binding calls can cover weak binding; strength is not graded here. For some of these results: Tags and fused reporters may be left off the sequences shown."}
{"molecule": "endogenous PJA1 (from UniProt Q8NG27-3)", "values": [{"measurement": "binding", "setting": "[1]", "result": "binds"}]}
{"molecule": "tag-free PJA1BΔR (from pcDNA3.1-PJA1BΔR) (domain or fragment)", "values": [{"measurement": "binding", "setting": "[2]", "result": "binds"}]}
{"molecule": "tag-free PJA1ΔR (from pcDNA3.1-PJA1ΔR) (domain or fragment)", "values": [{"measurement": "binding", "setting": "[2]", "result": "binds"}]}
{"molecule": "maltose-binding protein (MBP)-PJA1BΔR (domain or fragment)", "values": [{"measurement": "binding", "setting": "GST-NSE3 (human)", "result": "binds"}, {"measurement": "binding", "setting": "GST-NSE4 (human)", "result": "binds weakly"}]}
{"molecule": "HA-PJA1ΔR (PJA1 lacking the RING domain, from pCAGGS-HA-PJA1ΔR) (domain or fragment)", "values": [{"measurement": "binding", "setting": "Flag-NSE1 (human)", "result": "no binding"}, {"measurement": "binding", "setting": "Flag-NSE3 (human)", "result": "binds"}, {"measurement": "binding", "setting": "Flag-NSE4 (human)", "result": "binds"}, {"measurement": "binding", "setting": "Flag-SMC6 (human)", "result": "binds"}]}
{"molecule": "endogenous NSE4 (protein, UniProt Q9NXX6 1-385) MSGDSSGRGPEGRGRGRDPHRDRTRSRSRSRSPLSPRSRRGSARERREAPERPSLEDTEPSDSGDEMMDPASLEAEADQGLCRQIRHQYRALINSVQQNREDILNAGDKLTEVLEEANTLFNEVSRAREAVLDAHFLVLASDLGKEKAKQLRSDLSSFDMLRYVETLLTHMGVNPLEAEELIRDEDSPDFEFIVYDSWKITGRTAENTFNKTHTFHFLLGSIYGECPVPKPRVDRPRKVPVIQEERAMPAQLRRMEESHQEATEKEVERILGLLQTYFREDPDTPMSFFDFVVDPHSFPRTVENIFHVSFIIRDGFARIRLDQDRLPVIEPVSINEENEGFEHNTQVRNQGIIALSYRDWEEIVKTFEISEPVITPSQRQQKPSA", "values": [{"measurement": "binding", "setting": "[3]", "result": "binds"}]}
